Laboratory results: PubChem BioAssay AID1259405 (NCATS, 2018)
Aim: 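Silenced genes that increase secreted GFP made by CHO cells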 (primary screen). System: Chinese hamster CHO-K1 ovary cells with stable secreted eGFP expression. Knock-down reagent: single siRNA against mouse genes, 0.8 pmol siRNA per well (2 µl of 400 nM stock). Duration: 3 days. Measurement: 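Percent of the per-plate non-targeting control median for intracellular GFP per well by laser scanning cytometry and for cell viability by ATP luminescence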. Direction: GFP, % of control: higher = more GFP per well, higher productivity; viability (ATP), % of control: higher = more viable cells (more ATP). Hit rule: 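a knock-down is called active if GFP reaches 120% or more of non-targeting control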.
Shown is one part, drawn at random, of about 50,000 reagents. Over the whole deposit, about 4,000 (8%) are marked active. 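Mouse siRNA library applied to hamster cells; one well for each siRNA.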 Entries without a mark were called inactive. Reagents against one gene are numbered here. No sequences are given here.

| gene symbol | siRNA no. | GFP, % of control | viability (ATP), % of control |
| --- | --- | --- | --- |
| Zcchc3 | 1 | 83.7 | 69.4 |
| Zcchc3 | 2 | 67.4 | 72.4 |
| Zcchc3 | 3 | 84.8 | 80 |
| Cep164 | 1 | 67 | 106 |
| Cep164 | 2 | 65.9 | 78.7 |
| Cep164 | 3 | 77.2 | 89.9 |
| Nup160 | 1 | 60.4 | 58.3 |
| Nup160 | 2 | 62.6 | 79 |
| Nup160 | 3 | 64 | 55.2 |
| Zfp935 | 1 | 68.9 | 88.5 |
| Zfp935 | 2 | 68.2 | 82 |
| Zfp935 | 3 | 87.8 | 101 |
| Gm5148 | 1 | 99.3 | 74.3 |
| Gm5148 | 2 | 69.4 | 79.3 |
| Gm5148 | 3 | 63 | 57.9 |
| Or1e23 | 1 | 66.2 | 70 |
| Or1e23 | 2 | 44.2 | 55.6 |
| Or1e23 | 3 | 41.9 | 103 |
| Ndufa13 | 1 | 65.2 | 73.1 |
| Ndufa13 | 2 | 98.7 | 73.3 |
| Ndufa13 | 3 | 92.3 | 82.3 |

3 entries already listed, sorted by “GFP, % of control”, ascending:
| gene symbol | siRNA no. | GFP, % of control | viability (ATP), % of control |
| --- | --- | --- | --- |
| Nup160 | 1 | 60.4 | 58.3 |
| Cep164 | 2 | 65.9 | 78.7 |
| Cep164 | 3 | 77.2 | 89.9 |

Next results follow:
| gene symbol | siRNA no. | GFP, % of control | viability (ATP), % of control |
| --- | --- | --- | --- |
| Got2 | 1 | 51.5 | 70 |
| Got2 | 2 | 51.2 | 75.6 |
| Got2 | 3 | 95.3 | 86.8 |
| Brf1 | 1 | 96.4 | 96.5 |
| Brf1 | 2 | 112 | 97.8 |
| Fkbpl | 1 | 95.8 | 76.7 |
| Fkbpl | 2 | 82.8 | 101 |
| Fkbpl | 3 | 80.6 | 78.1 |
| Scn10a | 1 | 100 | 93.5 |
| Scn10a | 2 | 68.7 | 52.4 |
| Scn10a | 3 | 84.6 | 66.6 |
| Kansl1l | 1 | 82.5 | 97.7 |
| Kansl1l | 2 | 53.7 | 48.8 |
| Kansl1l | 3 | 52.6 | 56.2 |
